Source: paper PMC3131257, “Hypericum lanceolatum (Hypericaceae) as a potential source of new anti-malarial agents: a bioassay-guided fractionation of the stem bark” (Malaria Journal, 2011)

Tested on: LLC-MK2 monkey kidney epithelial cells
Assay: cytotoxicity on LLC-MK2 monkey kidney epithelial cells
Conditions: SI = CC50/IC50
Description: The cytotoxicity profiles of the extracts and pure compounds were estimated against LLC-MK2 monkey kidney epithelial cells according to the procedure previously described with some modifications. Cells were cultured under the same conditions as P. falciparum. Cells were distributed in 96-well plates at 20,000 cells per well in 100 μL culture medium, and allowed to attach and become confluent, for 24h. The medium was then removed completely the next day and 100 μL of fresh medium was added to all the wells, followed by 100 μL of crude extract (1000 μg/mL) or pure compounds (200 μg/mL) added in triplicate in row H. A two folds serial dilution was made upward to obtain concentration range of 250 - 3.90 μg/ml (crude extract) or 50 - 0.78 μg/ml (pure compounds), cells at row A serving as control without drug. The plates were incubated for five days at 37°C in 5% CO2 in air. Cells concentration and viability in the presence of extracts or pure compounds were compared with that of control cultures without extracts.

C=C(C)[C@@H]1CC[C@]2(C(=O)O)CC[C@]3(C)[C@H](CC[C@@H]4[C@@]5(C)CC[C@H](O)C(C)(C)[C@@H]5CC[C@]43C)[C@@H]12 [HLT1, 3-hydroxy-lup-20(29)-en-28-oic acid]
Mean SI for W2mef (first SI column of Table 3): 4.98
Mean SI for W2mef (second SI column of Table 3 (same head printed)): 4.46
